In this experiment the target is T1, GST-mouse Popdc1 (aa 114 to 357) fusion protein (mouse) (UniProt Q9ES83).
T1 sequence: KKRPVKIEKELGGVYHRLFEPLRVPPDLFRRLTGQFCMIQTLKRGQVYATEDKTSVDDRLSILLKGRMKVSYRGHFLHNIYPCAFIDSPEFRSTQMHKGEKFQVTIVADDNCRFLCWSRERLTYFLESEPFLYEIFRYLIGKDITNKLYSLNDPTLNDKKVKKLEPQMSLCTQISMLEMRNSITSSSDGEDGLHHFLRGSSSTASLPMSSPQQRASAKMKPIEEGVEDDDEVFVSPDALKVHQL
The experiment can be described thus: affinity purification with mass spectrometry; GST-tagged bait on glutathione high capacity magnetic agarose beads, incubated with cultured human myotube extract in RIPA buffer; captured proteins digested with trypsin, nanoLC MSMS; control: beads with no bait; only the target purified.

By UniProt entry, the sequences of proteins in these tests, tags left out. Residues count along the entry.
UniProt P07437: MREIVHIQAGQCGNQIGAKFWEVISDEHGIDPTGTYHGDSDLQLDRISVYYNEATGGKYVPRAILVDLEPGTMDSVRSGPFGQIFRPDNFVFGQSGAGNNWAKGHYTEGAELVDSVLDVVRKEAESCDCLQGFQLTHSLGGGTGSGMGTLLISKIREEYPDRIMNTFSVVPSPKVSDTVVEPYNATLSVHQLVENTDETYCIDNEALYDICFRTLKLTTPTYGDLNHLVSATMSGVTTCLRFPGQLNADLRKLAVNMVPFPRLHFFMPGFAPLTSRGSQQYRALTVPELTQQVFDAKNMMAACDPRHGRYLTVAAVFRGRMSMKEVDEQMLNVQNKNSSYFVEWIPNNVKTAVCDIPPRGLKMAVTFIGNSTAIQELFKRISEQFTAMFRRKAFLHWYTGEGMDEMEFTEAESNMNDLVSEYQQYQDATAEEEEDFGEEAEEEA
UniProt P68371: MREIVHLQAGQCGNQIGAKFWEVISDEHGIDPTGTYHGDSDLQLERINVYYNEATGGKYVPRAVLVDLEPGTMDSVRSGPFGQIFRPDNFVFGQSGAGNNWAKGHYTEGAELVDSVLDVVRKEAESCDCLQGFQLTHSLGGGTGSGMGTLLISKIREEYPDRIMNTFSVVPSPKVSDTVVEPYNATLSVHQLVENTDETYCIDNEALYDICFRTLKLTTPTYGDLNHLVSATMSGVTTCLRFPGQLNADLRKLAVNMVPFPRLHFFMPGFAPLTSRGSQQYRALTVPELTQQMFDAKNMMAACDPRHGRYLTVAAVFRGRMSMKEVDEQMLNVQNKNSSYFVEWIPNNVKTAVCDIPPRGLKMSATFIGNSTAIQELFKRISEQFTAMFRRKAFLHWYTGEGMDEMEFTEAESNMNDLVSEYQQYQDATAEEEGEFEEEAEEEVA
UniProt P18669: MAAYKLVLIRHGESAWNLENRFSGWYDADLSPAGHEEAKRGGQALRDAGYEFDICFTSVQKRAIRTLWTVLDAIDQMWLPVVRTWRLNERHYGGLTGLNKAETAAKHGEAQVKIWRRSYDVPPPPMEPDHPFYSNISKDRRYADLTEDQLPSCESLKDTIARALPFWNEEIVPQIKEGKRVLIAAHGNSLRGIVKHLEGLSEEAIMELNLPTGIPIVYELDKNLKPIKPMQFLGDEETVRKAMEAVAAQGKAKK
UniProt Q702N8: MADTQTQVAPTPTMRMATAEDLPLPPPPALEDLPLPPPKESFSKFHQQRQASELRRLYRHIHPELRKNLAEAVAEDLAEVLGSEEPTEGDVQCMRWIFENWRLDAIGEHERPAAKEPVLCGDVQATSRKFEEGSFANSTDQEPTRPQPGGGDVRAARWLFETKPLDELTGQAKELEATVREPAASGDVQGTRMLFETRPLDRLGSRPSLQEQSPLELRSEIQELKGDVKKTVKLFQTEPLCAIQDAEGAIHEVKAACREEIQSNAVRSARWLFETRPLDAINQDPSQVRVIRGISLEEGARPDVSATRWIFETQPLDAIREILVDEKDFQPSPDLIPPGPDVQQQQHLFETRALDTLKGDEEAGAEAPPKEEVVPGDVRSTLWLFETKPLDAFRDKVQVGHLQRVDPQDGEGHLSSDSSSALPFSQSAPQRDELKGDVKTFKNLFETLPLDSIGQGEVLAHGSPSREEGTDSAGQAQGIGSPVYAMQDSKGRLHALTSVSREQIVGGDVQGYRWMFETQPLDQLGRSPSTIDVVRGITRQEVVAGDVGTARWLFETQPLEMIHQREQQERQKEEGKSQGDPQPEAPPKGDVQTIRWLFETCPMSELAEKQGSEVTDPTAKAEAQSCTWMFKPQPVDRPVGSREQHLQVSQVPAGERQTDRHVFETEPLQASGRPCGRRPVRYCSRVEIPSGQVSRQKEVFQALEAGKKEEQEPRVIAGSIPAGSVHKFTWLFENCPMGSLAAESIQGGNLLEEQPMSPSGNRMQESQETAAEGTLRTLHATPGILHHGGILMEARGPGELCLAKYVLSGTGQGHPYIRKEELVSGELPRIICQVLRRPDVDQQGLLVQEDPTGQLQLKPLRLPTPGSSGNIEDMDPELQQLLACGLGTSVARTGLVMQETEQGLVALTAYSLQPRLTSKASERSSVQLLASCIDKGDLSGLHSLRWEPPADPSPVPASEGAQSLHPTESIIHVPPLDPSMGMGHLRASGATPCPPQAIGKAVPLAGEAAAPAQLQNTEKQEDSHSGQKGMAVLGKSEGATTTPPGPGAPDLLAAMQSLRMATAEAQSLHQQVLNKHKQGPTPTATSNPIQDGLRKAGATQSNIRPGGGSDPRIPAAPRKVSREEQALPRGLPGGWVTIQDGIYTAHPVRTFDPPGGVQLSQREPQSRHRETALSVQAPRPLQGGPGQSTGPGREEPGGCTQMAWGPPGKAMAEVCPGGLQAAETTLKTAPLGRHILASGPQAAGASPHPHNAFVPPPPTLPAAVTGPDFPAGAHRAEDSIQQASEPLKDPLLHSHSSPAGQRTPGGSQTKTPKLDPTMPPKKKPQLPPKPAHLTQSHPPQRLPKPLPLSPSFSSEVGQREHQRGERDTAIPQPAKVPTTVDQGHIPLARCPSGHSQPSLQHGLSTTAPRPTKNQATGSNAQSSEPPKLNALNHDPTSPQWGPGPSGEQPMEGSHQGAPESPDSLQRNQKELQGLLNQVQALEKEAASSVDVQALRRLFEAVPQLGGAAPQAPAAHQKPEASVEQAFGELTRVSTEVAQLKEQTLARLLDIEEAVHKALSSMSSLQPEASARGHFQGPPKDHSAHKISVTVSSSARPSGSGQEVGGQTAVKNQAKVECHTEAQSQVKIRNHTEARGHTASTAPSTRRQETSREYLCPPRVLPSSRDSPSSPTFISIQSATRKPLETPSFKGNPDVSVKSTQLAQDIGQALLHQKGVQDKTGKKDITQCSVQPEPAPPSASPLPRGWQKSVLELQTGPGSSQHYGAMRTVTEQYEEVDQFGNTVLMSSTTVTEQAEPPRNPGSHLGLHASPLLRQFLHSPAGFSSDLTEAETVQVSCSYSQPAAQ
UniProt P08758: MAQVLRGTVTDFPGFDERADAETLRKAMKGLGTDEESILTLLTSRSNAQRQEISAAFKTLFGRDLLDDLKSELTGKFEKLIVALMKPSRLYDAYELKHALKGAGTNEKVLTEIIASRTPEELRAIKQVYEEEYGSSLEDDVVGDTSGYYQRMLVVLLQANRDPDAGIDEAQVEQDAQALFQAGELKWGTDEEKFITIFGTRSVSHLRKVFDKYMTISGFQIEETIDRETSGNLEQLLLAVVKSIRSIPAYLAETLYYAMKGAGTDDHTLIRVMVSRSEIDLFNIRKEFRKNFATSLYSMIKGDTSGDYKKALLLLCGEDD
UniProt Q9BUF5: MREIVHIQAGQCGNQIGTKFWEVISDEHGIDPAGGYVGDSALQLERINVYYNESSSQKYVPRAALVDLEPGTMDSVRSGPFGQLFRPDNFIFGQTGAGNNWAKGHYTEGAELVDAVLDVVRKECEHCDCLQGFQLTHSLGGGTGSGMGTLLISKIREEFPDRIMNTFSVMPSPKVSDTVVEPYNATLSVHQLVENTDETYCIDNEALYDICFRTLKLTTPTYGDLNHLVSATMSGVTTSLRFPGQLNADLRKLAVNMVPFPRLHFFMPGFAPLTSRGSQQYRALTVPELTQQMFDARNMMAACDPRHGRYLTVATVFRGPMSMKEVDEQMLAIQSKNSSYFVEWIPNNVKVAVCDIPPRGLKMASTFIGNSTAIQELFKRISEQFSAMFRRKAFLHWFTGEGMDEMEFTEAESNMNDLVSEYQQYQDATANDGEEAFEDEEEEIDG
UniProt P14314, residues 15-528: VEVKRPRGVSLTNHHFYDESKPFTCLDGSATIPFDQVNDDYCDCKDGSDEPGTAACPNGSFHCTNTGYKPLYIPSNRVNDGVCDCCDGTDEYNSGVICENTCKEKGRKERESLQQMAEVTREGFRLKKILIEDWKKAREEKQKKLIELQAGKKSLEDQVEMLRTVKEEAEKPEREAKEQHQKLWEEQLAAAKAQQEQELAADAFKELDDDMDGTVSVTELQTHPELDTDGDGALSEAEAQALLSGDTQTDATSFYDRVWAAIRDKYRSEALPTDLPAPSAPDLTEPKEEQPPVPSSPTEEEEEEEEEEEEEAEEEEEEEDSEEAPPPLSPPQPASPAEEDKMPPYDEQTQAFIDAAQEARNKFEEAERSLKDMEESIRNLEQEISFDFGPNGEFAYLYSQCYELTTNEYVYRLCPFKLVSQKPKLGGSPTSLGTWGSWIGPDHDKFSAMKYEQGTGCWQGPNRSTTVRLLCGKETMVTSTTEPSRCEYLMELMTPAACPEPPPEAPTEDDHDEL

Results are given in words; binding and its absence hold for the method and conditions named. In cells and extracts the contact can be indirect. These calls come from enrichment with a bait or labelling near it, and not all partners need be listed. Sequences can lack the tags named with a protein.

In the case of “Tubulin beta chain (from UniProt P07437 1-444)”, the binding entry was “binds”.
The same measure for “Tubulin beta-4B chain (from UniProt P68371 1-445)”: “binds”; for “Phosphoglycerate mutase 1 (from UniProt P18669 1-254) (enzyme)”: “binds”.
Take “Xin actin-binding repeat-containing protein 1 (from UniProt Q702N8 1-1843)”: the binding entry is reported as “binds”.
The same measure for “40S ribosomal protein S30 (human (endogenous in human myotubes))”: “binds”; for Annexin A5 (from UniProt P08758 1-320): “binds”.
The same measure for “ATP synthase subunit beta, mitochondrial (from UniProt P06576 48-529)”: “binds”.
Regarding “Tubulin beta-6 chain (from UniProt Q9BUF5 1-446)”, the binding entry is “binds”.
The same measure for “Glucosidase 2 subunit beta (from UniProt P14314 15-528)”: “binds”.

B1: PDZ and LIM domain protein 3 (protein, UniProt Q53GG5 1-364)
chain: MPQTVILPGPAPWGFRLSGGIDFNQPLVITRITPGSKAAAANLCPGDVILAIDGFGTESMTHADAQDRIKAAAHQLCLKIDRGETHLWSPQVSEDGKAHPFKINLESEPQDGNYFEHKHNIRPKPFVIPGRSSGCSTPSGIDCGSGRSTPSSVSTVSTICPGDLKVAAKLAPNIPLEMELPGVKIVHAQFNTPMQLYSDDNIMETLQGQVSTALGETPLMSEPTASVPPESDVYRMLHDNRNEPTQPRQSGSFRVLQGMVDDGSDDRPAGTRSVRAPVTKVHGGSGGAQRMPLCDKCGSGIVGAVVKARDKYRHPECFVCADCNLNLKQKGYFFIEGELYCETHARARTKPPEGYDTVTLYPKA
With B1, the binding entry is on record as “binds”.

B2: Fructose-bisphosphate aldolase A (enzyme, UniProt P04075 1-364)
chain: MPYQYPALTPEQKKELSDIAHRIVAPGKGILAADESTGSIAKRLQSIGTENTEENRRFYRQLLLTADDRVNPCIGGVILFHETLYQKADDGRPFPQVIKSKGGVVGIKVDKGVVPLAGTNGETTTQGLDGLSERCAQYKKDGADFAKWRCVLKIGEHTPSALAIMENANVLARYASICQQNGIVPIVEPEILPDGDHDLKRCQYVTEKVLAAVYKALSDHHIYLEGTLLKPNMVTPGHACTQKFSHEEIAMATVTALRRTVPPAVTGITFLSGGQSEEEASINLNAINKCPLLKPWALTFSYGRALQASALKAWGGKKENLKAAQEEYVKRALANSLACQGKYTPSGQAGAAASESLFVSNHAY
Regarding B2, the binding entry is “binds”.

B3: Lamina-associated polypeptide 2 (beta/gamma) (protein, UniProt P42167 1-454)
chain: MPEFLEDPSVLTKDKLKSELVANNVTLPAGEQRKDVYVQLYLQHLTARNRPPLPAGTNSKGPPDFSSDEEREPTPVLGSGAAAAGRSRAAVGRKATKKTDKPRQEDKDDLDVTELTNEDLLDQLVKYGVNPGPIVGTTRKLYEKKLLKLREQGTESRSSTPLPTISSSAENTRQNGSNDSDRYSDNEEDSKIELKLEKREPLKGRAKTPVTLKQRRVEHNQSYSQAGITETEWTSGSSKGGPLQALTRESTRGSRRTPRKRVETSEHFRIDGPVISESTPIAETIMASSNESLVVNRVTGNFKHASPILPITEFSDIPRRAPKKPLTRAEVGEKTEERRVERDILKEMFPYEASTPTGISASCRRPIKGAAGRPLELSDFRMEESFSSKYVPKYVPLADVKSEKTKKGRSIPVWIKILLFVVVAVFLFLVYQAMETNQVNPFSNFLHVDPRKSN
As for B3, the binding result is “binds”.

B4: Heat shock protein beta-2 (protein, UniProt Q16082 1-182)
chain: MSGRSVPHAHPATAEYEFANPSRLGEQRFGEGLLPEEILTPTLYHGYYVRPRAAPAGEGSRAGASELRLSEGKFQAFLDVSHFTPDEVTVRTVDNLLEVSARHPQRLDRHGFVSREFCRTYVLPADVDPWRVRAALSHDGILNLEAPRGGRHLDTEVNEVYISLLPAPPDPEEEEEAAIVEP
Consider B4, for which the binding result is reported as “binds”.

Values taken from PMC7709239.
